In patent US8664207B2, “Organic compounds” (Intra-Cellular Therapies, Inc., priority 2008, dated 2014):
Some results were stated once for a whole list of compounds, not compound by compound. At least one structure is not confirmed: it was looked up by name or label, or the drawing left a doubt.

Biological target: PDE1B
Assay: Measurement of PDE1B inhibition in vitro using IMAP phosphodiesterase assay kit
Assay type: biochemical
Details: IMAP fluorescence polarization assay, bovine brain phosphodiesterase, FL-GMP substrate; 'particularly against PDE1A'; read-out: IC50 values, PDE1 inhibitory activity

Structure (SMILES) | IC50
CN1C(=O)c2cn(Cc3ccc(-c4ccccn4)cc3)cc2N2C1=N[C@@H]1CCC[C@@H]12 [Example 1, (6aR,9aS)-5,6a,7,8,9,9a-hexahydro-5-methyl-2-((4-Pyridin-2yl)-benzyl)-cyclopent[4,5]imidazo[1,2-a]pyrrolo[4,3-e]pyrimidin-4(2H)-one] | ≤ 10 µM
Cc1c2c(cn1Cc1ccc(-c3cccc(F)n3)cc1)C(=O)N(C)C1=N[C@@H]3CCC[C@@H]3N12 [Example 3, (6aR,9aS)-5,6a,7,8,9,9a-hexahydro-1,5-dimethyl-2-(4-(6-fluoropyridin-2-yl)benzyl)-cyclopent[4,5]imidazo[1,2-a]pyrrolo[4,3-e]pyrimidin-4(2H)-one] | ≤ 10 µM
CN1C(=O)c2cn(Cc3ccc(-c4cccc(F)n4)cc3)c(Nc3ccccc3)c2N2C1=N[C@@H]1CCC[C@@H]12 [Example 5, (6aR,9aS)-5,6a,7,8,9,9a-hexahydro-5-methyl-1-(phenylamino)-2-(4-(6-fluoropyridin-2-yl)benzyl)-cyclopent[4,5]imidazo[1,2-a]pyrrolo[4,3-e]pyrimidin-4(2H)-one] | ≤ 10 µM
